# Library screen at single concentrations

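Growth of Mycobacterium tuberculosis over 4 days (cholesterol / DPPC medium with tyloxapol); the read-out is not stated. Compounds at 50 µM. Direction is inferred from retests: higher values go with more growth inhibition. About 69,000 compounds were tested under these conditions; 0.54% (about 370) showed 50% or more at least once.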

The filed quantity is “Percent Effect” (%). The controls that fix the scale are not given in the record; negative values are as filed. Compounds were drawn at random from those tested, without regard to their results. Two or more numbers in one place are separate tests of the same structure; such repeats can differ widely.

| # | SMILES | percent effect |
|---|---|---|
| 1 | `CCC1CN(c2nnc(C)c(C)c2C#N)CCO1` (stereo not given) | -8.855% |
| 2 | `O=C(O)C1(O)CCN(c2ccc3cccc(Cl)c3n2)CC1` | -3.271% |
| 3 | `Clc1ccccc1-c1nc(CNC2CCc3ncnn3C2)cs1` (stereo not given) | 10.87% |
| 4 | `Cc1nc(CN2CCN(CC(=O)Nc3c(C)cccc3C)CC2)no1` | -21.45% |
| 5 | `CN(C)S(=O)(=O)c1csc(C(=O)N2CCC(C(N)=O)CC2)c1` | -11.21% |
| 6 | `CCN1CC2(CC1=O)CN(Cc1ccc(C)o1)CCN(C(=O)C(C)C)C2.O=C(O)C(F)(F)F` (stereo not given) | -5.845% |
| 7 | `NC1(c2nc(-c3cccs3)cc(=O)[nH]2)CCCC1` | -18.62% |
| 8 | `O=C(NCc1ccc2nonc2c1)C1CCN(C(=O)C2CCC2)CC1` | 15.1% |
| 9 | `Cc1ccc(CN(C)C(=O)CN2CCCC(Cn3cncn3)C2)cc1` (stereo not given) | -28.38% |
| 10 | `CN(c1ncnc2c1cnn2C)C1CCCN(c2cccnn2)C1` (stereo not given) | -13.65% and 0.6491% |
| 11 | `[H][C@]1([C@@]2(C)CC[C@H](O)C(C)(C)O2)CC2(CCN(c3cnccn3)CC2)CO1` | -5.815% and -1.566% |
| 12 | `CN(CC(F)(F)F)C(=O)CNC(=O)N1CCC(N2CCCC2)C1` (stereo not given) | 5.091% |
| 13 | `O=C(NCc1ccccc1CO)Nc1ccc2c(c1)CCC2` | -5.628% |
| 14 | `CC(O)CN1CCC(CNCc2cccc(OC(C)C)c2)CC1` (stereo not given) | -16.74% |
| 15 | `CN1CCN(C(C)(C)CNC(=O)C2CCCN2S(C)(=O)=O)CC1` (stereo not given) | -23.91% |
| 16 | `Cc1cccc(NS(=O)(=O)c2cc(C(=O)O)oc2C)c1Cl` | -5.797% |
| 17 | `CC(C)CN1CCCn2nc(CNC(=O)c3cccnc3O)cc2C1` | -0.611% |
| 18 | `CC(C)c1noc(CCCC(=O)N2CCN(Cc3cccnc3)CC2)n1` | -14.33% |
| 19 | `N#Cc1ccc(CNC2CCN(CCc3ccncc3)CC2)cc1` | -7.153% |
| 20 | `O=C(c1ccno1)N1CCOC[C@H](Oc2ccc(C(F)(F)F)cc2)C1` | -17.85% |
| 21 | `CN1C[C@@H](O)[C@]2(CCN(C(=O)OCc3ccccc3)C2)S1(=O)=O` | -5.159% |
| 22 | `CCc1cnc(CN(C(C)=O)C2CCN(CCc3cnn(C)c3)C2)o1` (stereo not given) | 2.087% |
| 23 | `COc1ccc(CN(C)C2CCN(C(=O)C(C)C)CC2)c2cccnc12` | -11.09% |
| 24 | `CCOc1ncnc2c1CCN(C(=O)NCc1cccnc1)CC2.O=C(O)C(F)(F)F` | -17.15% |
| 25 | `CCc1c(C)n(CC(C)=O)c2nc3ccccc3n2c1=O` | -4.873% |
| 26 | `Cc1csc2c(=O)n3c(nc12)CCN(C(=O)c1ccccn1)CC3` | -6.164% |
| 27 | `Fc1cnc(N2CCc3nnc(COc4ccccn4)n3CC2)nc1.O=C(O)C(F)(F)F` | 9.766% |
| 28 | `CN(Cc1ccc(N2CCOCC2)cc1)C(=O)Cn1cccnc1=O` | 14.65% |
| 29 | `O=C(O)c1nnn(-c2ccc(C(F)(F)F)cc2)c1-c1ccncc1` | -12.42% |
| 30 | `CC1CCCN(C(=O)c2ncncc2Cl)C1` (stereo not given) | -37.54% |
| 31 | `Cc1ccnc(C2(C)CCCN2S(=O)(=O)c2cccnc2)n1` (stereo not given) | -3.649% and 3.356% |
| 32 | `Cc1nn(C)c(C)c1CN(C)C(=O)c1cc(NC(=O)C2CC2)n(C)n1` | 1.105% |
| 33 | `c1nc(-c2nc(C3CCOC3)no2)cs1` (stereo not given) | -25.43% and -6.622% |
| 34 | `Cc1ncsc1C(=O)N(Cc1cccs1)C1CC1` | 4.043% |
| 35 | `COCC(=O)N1CCN(Cn2nc(C)c(Br)c2C)CC1` | -10.08% |
| 36 | `COc1ccc(N(C(=O)c2cnc(C)cn2)C(C)C)cc1F` | -1.015% |
| 37 | `COc1cc(CN2CC[C@@H](N3CCCCCC3)[C@H](O)C2)cc(Cl)c1OC` | 2.34% |
| 38 | `O=C(c1ccc(SC(F)(F)F)cc1)N1CCOCC1c1ncon1` (stereo not given) | -2.665% |
| 39 | `CC(C)Cc1ncc2c(n1)CN(c1nccc(N(C)C)n1)C2` | -2.642% |
| 40 | `COc1cc(C)ccc1OCc1nc(C(=O)N2CCCC2)co1` | 6.128% |
| 41 | `CC(C)COCCC(=O)NCc1cn2cc(Br)ccc2n1` | -13.72% and -14.1% |
| 42 | `Cc1nc(N2CCCC2)ncc1-c1cc(O)nc(N2CCOCC2)n1` | 10.18% |
| 43 | `Cn1cc(CCNCc2cc(Cl)c3c(c2)OCCO3)cn1` | 10.32% |
| 44 | `Cc1cc(-c2ccc(=O)n(CCNC(=O)C3CCC3)n2)c(C)o1` | -13.74% and -26.36% |
| 45 | `CCOCCn1nc(C)cc1C(=O)N1CCCC[C@H](N(C)C)C1` | -14.23% and -3.653% |
| 46 | `CCN1CC2(CCCCN2C(=O)C2CCCCC2)CC1=O` (stereo not given) | 15.49% |
| 47 | `O=C(O)C(F)(F)F.[H][C@]12CCN(C(=O)NCc3ccccc3)C[C@@]1([H])OCCN(C(C)C)C2` | -38.3% |
| 48 | `Cc1ccc(C)c(-n2ncc(NC(=O)NC3(C)CCOC3)c2C)c1` (stereo not given) | -17.21% |
| 49 | `COCCCNC(=O)C(C)n1nc(-c2ccco2)cc(N)c1=O` (stereo not given) | -3.941% and -5.866% |

6 of the entries, repeated:

* CC(C)CN1CCCn2nc(CNC(=O)c3cccnc3O)cc2C1 | -0.611%
* CCN1CC2(CCCCN2C(=O)C2CCCCC2)CC1=O (stereo not given) | 15.49%
* COCC(=O)N1CCN(Cn2nc(C)c(Br)c2C)CC1 | -10.08%
* Cn1cc(CCNCc2cc(Cl)c3c(c2)OCCO3)cn1 | 10.32%
* Cc1cccc(NS(=O)(=O)c2cc(C(=O)O)oc2C)c1Cl | -5.797%
* c1nc(-c2nc(C3CCOC3)no2)cs1 (stereo not given) | -25.43% and -6.622%

The values are deposited in ChEMBL (CHEMBL3988442, “University of Dundee, Small-Polar-MMV Screening Library” (2021)).